Laboratory results from paper PMC7862700.
This is a selection; strong and weak results do not stand in their true shares. At the low end of the ranking the order means little.

The chains behind the UniProt entries cited, without tags or fusion partners. Where a name states a change or a piece, a line headed by the entry shows the natural chain unless it says otherwise.
UniProt Q9Y603: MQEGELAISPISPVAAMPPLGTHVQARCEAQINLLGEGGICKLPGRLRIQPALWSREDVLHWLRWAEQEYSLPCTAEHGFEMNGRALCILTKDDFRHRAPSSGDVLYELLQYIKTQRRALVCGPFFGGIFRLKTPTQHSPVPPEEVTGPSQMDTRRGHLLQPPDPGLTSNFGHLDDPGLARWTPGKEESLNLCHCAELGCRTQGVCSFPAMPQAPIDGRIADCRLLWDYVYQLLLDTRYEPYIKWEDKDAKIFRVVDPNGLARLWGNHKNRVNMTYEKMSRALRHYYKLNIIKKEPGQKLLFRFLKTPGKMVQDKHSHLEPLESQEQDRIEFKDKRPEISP
UniProt P41212: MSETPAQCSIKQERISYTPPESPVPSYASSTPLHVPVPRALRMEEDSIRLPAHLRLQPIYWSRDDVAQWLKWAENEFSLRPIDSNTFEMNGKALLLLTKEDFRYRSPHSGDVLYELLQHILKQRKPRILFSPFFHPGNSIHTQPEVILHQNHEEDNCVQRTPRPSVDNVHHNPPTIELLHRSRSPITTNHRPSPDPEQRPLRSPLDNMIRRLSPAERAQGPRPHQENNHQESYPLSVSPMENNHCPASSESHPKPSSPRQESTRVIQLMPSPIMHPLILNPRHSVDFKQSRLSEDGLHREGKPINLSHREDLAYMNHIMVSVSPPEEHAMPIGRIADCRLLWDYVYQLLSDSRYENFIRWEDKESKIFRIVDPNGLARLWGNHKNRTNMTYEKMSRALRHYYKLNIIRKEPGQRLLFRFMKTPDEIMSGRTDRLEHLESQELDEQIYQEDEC

What was measured:
Experiment in all cases: DAPPL (digital affinity profiling via proximity ligation, sequencing)
Conditions in all cases: 10 mM Tris-HCl pH 7.5, 50 mM NaCl, 1 mM DTT, 4% glycerol, room temperature, 30 min; GST-TFs on glutathione beads, 16-mer random dsDNA library, 0.1% …; high values mean tight binding; double strand, one strand shown; scale: fold enrichment (6-mer frequency, TF over GST control)
ELF3 = biological target: T1, ELF3 (UniProt P78545)
T1 sequence: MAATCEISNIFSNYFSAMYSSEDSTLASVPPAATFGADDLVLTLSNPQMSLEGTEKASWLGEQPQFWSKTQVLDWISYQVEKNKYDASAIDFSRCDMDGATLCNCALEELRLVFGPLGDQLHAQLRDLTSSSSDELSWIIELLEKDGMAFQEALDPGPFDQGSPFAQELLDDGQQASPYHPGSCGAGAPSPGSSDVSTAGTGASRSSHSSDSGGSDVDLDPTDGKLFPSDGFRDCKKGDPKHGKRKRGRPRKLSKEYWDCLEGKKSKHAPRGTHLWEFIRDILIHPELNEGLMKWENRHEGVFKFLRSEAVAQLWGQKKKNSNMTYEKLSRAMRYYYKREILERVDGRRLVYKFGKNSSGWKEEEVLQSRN

ETV7 = ETV7 (UniProt Q9Y603)
ETV6 = ETV6 (UniProt P41212)

TGATAG
binding signal (ELF3): 0.918
binding signal (ETV7): 0.999
binding signal (ETV6): 0.994

TTAGTC
binding signal (ELF3): 0.813
binding signal (ETV7): 0.747
binding signal (ETV6): 0.766

ACTAGA
binding signal (ELF3): 0.961
binding signal (ETV7): 0.913
binding signal (ETV6): 0.883

GCCTGG
binding signal (ELF3): 0.939
binding signal (ETV7): 0.939
binding signal (ETV6): 0.939

GCGTTA
binding signal (ELF3): 0.98
binding signal (ETV7): 0.974
binding signal (ETV6): 0.886

GACCCA
binding signal (ELF3): 0.899
binding signal (ETV7): 0.854
binding signal (ETV6): 0.867

AACCAC
binding signal (ELF3): 1.21
binding signal (ETV7): 1.03
binding signal (ETV6): 1.19

GGATAA
binding signal (ELF3): 0.857
binding signal (ETV7): 0.79
binding signal (ETV6): 0.762

GGATAC
binding signal (ELF3): 0.904
binding signal (ETV7): 0.9
binding signal (ETV6): 0.932

GTTGAA
binding signal (ELF3): 0.847
binding signal (ETV7): 0.946
binding signal (ETV6): 0.799

GTGGCA
binding signal (ELF3): 0.863
binding signal (ETV7): 0.984
binding signal (ETV6): 1.05

AACGCG
binding signal (ELF3): 1.02
binding signal (ETV7): 1.02
binding signal (ETV6): 1.01

TCATAA
binding signal (ELF3): 0.931
binding signal (ETV7): 0.993
binding signal (ETV6): 1

CAGATA
binding signal (ELF3): 0.867
binding signal (ETV7): 0.909
binding signal (ETV6): 0.824

CACTGA
binding signal (ELF3): 0.984
binding signal (ETV7): 0.946
binding signal (ETV6): 0.964

CTCGGG
binding signal (ELF3): 0.748
binding signal (ETV7): 0.985
binding signal (ETV6): 0.958

TGGGTT
binding signal (ELF3): 1.11
binding signal (ETV7): 0.999
binding signal (ETV6): 1

AGGTTC
binding signal (ELF3): 0.988
binding signal (ETV7): 0.791
binding signal (ETV6): 0.783

GGAATA
binding signal (ELF3): 0.96
binding signal (ETV7): 0.939
binding signal (ETV6): 0.946

AGAAGG
binding signal (ELF3): 0.757
binding signal (ETV7): 0.769
binding signal (ETV6): 0.725

GCGTCA
binding signal (ELF3): 0.894
binding signal (ETV7): 0.942
binding signal (ETV6): 0.968

AGCGAA
binding signal (ELF3): 0.96
binding signal (ETV7): 0.875
binding signal (ETV6): 0.886

GCCGCA
binding signal (ELF3): 0.981
binding signal (ETV7): 0.991
binding signal (ETV6): 0.984

GGATTC
binding signal (ELF3): 0.898
binding signal (ETV7): 0.9
binding signal (ETV6): 0.903

CGCACC
binding signal (ELF3): 0.994
binding signal (ETV7): 0.911
binding signal (ETV6): 0.981

GTGACT
binding signal (ELF3): 0.851
binding signal (ETV7): 0.805
binding signal (ETV6): 0.971

CACTCA
binding signal (ELF3): 1.17
binding signal (ETV7): 1.21
binding signal (ETV6): 1.14

TCCAGC
binding signal (ELF3): 0.894
binding signal (ETV7): 0.882
binding signal (ETV6): 0.955

ATTAGA
binding signal (ELF3): 0.762
binding signal (ETV7): 0.897
binding signal (ETV6): 0.869

CCACGT
binding signal (ELF3): 0.919
binding signal (ETV7): 1.06
binding signal (ETV6): 0.935
